Patent EP0907731B1, “METABOTROPIC GABA(B) RECEPTORS, RECEPTOR-SPECIFIC LIGANDS AND THEIR USES” (Novartis AG, priority 1996, dated 1997)
Some entries share one result that the patent states for a list of compounds.

Test system: native GABAB receptors
Assay: Photoaffinity labelling of membranes with [125I]CGP 71872 in the presence of competitor substances
Type: binding, rat
Details: 130K and 100K proteins; values 'Neither'/'nor' mean no significant competition
Description: The incubation is terminated by centrifugation at 20 000 x g for 10 min at 4°C. This step removed free unbound photoaffinity label. […] The suspension is centrifuged at 20 000 x g for 10 min and resuspended at a concentration of 8mg/ml protein in buffer. […] The labelled membranes could be stored at -80°C.
Furthermore, native GABAB receptors are photoaffinity-labelled in the presence of various competitor substances indicated in Figure 4b.

NC/C=C\C(=O)O [CACA, cis-aminocrotonic acid]
compete significantly with [125I]CGP71872 for radioligand binding (photoaffinity labelling, Figure 4b): nor

O=C(O)C1CCCN(CCC=C(c2ccccc2)c2ccccc2)C1 (centres unmarked) [SK&F89976A]
compete significantly with [125I]CGP71872 for radioligand binding (photoaffinity labelling, Figure 4b): nor
